Article PMC11265163
Results are given in words; binding and its absence hold for the method and conditions named. Binding seen in cells or lysates may run through a third protein. Some entries that bind do so weakly or less than the wild type.

Experiments:
[1] = biological target: PARP4 (human (endogenous in iSAEC-K, A549 and patient-derived lung cell lines)) (UniProt Q9UKK3); test: co-IP; endogenous proteins in whole-cell lysates (iSAEC-K; also A549, A611, A563, A653); lysis in 10 mM Tris-HCl pH 7.5, 150 mM NaCl, 0.5% NP-40, 0.25% sodium deoxycholate, 0.5 mM EDTA with 2 mM MgCl2 and 50 units/mL benzonase; 1 mg protein, 4 ug antibody overnight, Protein A/G Dynabeads …
[2] = biological target: PARP4 (human (endogenous in iSAEC-K, A549 and patient-derived lung cell lines)) (UniProt Q9UKK3); test: co-IP; immunoprecipitation of endogenous PARP4 from the cytoplasmic and nuclear fractions of iSAEC-K cells; immunoblot
[3] = biological target: T1, PARP4-Fragment 2 (amino acid residues 623-1114) (UniProt Q9UKK3); test: co-IP; FLAG immunoprecipitation of exogenously introduced FLAG-tagged PARP4 fragments or domain-deletion mutants from HEK293T cells; endogenous hnRNPM detected
T1 sequence: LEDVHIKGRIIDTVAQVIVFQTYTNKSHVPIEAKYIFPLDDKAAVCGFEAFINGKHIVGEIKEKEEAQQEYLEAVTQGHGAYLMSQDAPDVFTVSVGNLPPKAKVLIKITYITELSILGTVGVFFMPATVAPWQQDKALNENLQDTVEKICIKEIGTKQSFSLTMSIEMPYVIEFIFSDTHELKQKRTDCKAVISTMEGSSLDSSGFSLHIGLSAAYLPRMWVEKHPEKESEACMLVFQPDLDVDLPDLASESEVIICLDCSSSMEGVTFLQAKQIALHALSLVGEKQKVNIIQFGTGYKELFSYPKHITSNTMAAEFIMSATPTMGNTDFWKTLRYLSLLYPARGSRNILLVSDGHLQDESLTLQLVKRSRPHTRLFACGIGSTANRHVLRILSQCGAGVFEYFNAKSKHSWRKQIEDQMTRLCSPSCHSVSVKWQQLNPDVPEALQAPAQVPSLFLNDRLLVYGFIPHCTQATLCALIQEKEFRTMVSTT

[4] = biological target: T2, PARP4-Fragment 3 (amino acid residues 1115-1724) (UniProt Q9UKK3); test: as above
T2 sequence: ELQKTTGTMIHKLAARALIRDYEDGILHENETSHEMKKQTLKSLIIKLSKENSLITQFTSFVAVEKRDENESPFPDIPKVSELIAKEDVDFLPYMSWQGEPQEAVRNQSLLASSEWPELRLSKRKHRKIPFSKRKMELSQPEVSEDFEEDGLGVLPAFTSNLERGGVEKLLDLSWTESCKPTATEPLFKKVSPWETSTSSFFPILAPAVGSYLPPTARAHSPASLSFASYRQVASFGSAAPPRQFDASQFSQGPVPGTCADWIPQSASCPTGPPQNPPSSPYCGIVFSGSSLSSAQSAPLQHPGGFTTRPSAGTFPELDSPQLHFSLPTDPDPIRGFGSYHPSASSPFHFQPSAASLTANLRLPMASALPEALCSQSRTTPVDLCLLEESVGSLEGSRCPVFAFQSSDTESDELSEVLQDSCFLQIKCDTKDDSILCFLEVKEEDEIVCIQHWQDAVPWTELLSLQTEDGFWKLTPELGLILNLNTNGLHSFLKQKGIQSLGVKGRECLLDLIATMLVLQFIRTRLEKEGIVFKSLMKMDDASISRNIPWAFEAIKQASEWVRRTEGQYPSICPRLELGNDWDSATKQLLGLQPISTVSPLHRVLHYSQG

[5] = biological target: T3, PARP4-Fragment 1 (amino acid residues 1-622) (UniProt Q9UKK3); test: as above
T3 sequence: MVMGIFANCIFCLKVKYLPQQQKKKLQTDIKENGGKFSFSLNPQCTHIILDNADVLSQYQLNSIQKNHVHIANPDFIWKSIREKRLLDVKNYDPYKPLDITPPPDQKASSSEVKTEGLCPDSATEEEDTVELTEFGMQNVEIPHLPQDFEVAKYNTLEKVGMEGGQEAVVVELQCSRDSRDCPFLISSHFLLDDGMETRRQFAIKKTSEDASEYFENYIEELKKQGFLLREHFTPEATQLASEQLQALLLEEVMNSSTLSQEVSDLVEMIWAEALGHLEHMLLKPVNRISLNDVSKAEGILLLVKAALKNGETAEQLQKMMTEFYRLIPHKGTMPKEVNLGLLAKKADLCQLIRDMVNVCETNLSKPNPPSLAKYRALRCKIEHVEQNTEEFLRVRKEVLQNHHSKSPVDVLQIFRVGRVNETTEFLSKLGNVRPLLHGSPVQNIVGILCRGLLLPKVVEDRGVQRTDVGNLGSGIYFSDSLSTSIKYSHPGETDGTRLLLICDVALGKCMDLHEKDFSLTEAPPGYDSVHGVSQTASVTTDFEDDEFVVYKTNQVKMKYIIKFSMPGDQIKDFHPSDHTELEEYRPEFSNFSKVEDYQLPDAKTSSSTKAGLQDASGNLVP

binding [1]: binds
binding [2]: binds
binding [3]: binds
binding [4]: binds
binding [5]: no binding
B1: heterogeneous ribonucleoprotein M (hnRNPM) (protein, UniProt P52272 1-730)
chain: MAAGVEAAAEVAATEIKMEEESGAPGVPSGNGAPGPKGEGERPAQNEKRKEKNIKRGGNRFEPYANPTKRYRAFITNIPFDVKWQSLKDLVKEKVGEVTYVELLMDAEGKSRGCAVVEFKMEESMKKAAEVLNKHSLSGRPLKVKEDPDGEHARRAMQKVMATTGGMGMGPGGPGMITIPPSILNNPNIPNEIIHALQAGRLGSTVFVANLDYKVGWKKLKEVFSMAGVVVRADILEDKDGKSRGIGTVTFEQSIEAVQAISMFNGQLLFDRPMHVKMDERALPKGDFFPPERPQQLPHGLGGIGMGLGPGGQPIDANHLNKGIGMGNIGPAGMGMEGIGFGINKMGGMEGPFGGGMENMGRFGSGMNMGRINEILSNALKRGEIIAKQGGGGGGGSVPGIERMGPGIDRLGGAGMERMGAGLGHGMDRVGSEIERMGLVMDRMGSVERMGSGIERMGPLGLDHMASSIERMGQTMERIGSGVERMGAGMGFGLERMAAPIDRVGQTIERMGSGVERMGPAIERMGLSMERMVPAGMGAGLERMGPVMDRMATGLERMGANNLERMGLERMGANSLERMGLERMGANSLERMGPAMGPALGAGIERMGLAMGGGGGASFDRAIEMERGNFGGSFAGSFGGAGGHAPGVARKACQIFVRNLPFDFTWKMLKDKFNECGHVLYADIKMENGKSKGCGVVKFESPEVAERACRMMNGMKLSGREIDVRIDRNA
